Data on one compound can be found in PMC5596338 (Journal of Bone and Mineral Research, 2017).

The series is described as follows: Mineral binding affinity: elution from hydroxyapatite (HAP) columns by FPLC. The class given is physicochemical. The settings on record: HAP column, mean ± SE.

For the compound `NCCCC(O)(P(=O)(O)O)P(=O)(O)O` [Alendronate, alendronate], the “HAP affinity (mean retention time/min)” value was determined as 17.5 ± 0.14 min.
